This is one part of the list.
Columns and labels:
Assay in all cases: log2 fold change, soluble protein after heating vs DMSO (PISA); higher = thermal stabilisation; K562 cells, 10 uM, 30 min; active = over 0.2 and 3.5 SD of the protein, either way, in both replicates (recomputed)
[1] = compound: CC[C@@H]1C(=O)N(C)c2cnc(Nc3ccc(C(=O)NC4CCN(C)CC4)cc3OC)nc2N1C1CCCC1
Method in brief: (§1)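 Thermal stability values are relative to control samples and come from duplicates. They are expressed as log2 fold changes. For measurement, K562 cells (2×10^6 cells/mL) received 10 μM compound for 30 min, and aliquots were heated for 3 min over 48°C-58°C, pooled, and extracted at 4°C in PBS with 0.5% NP-40. Soluble protein, the supernatant after 21,000xg for 90 min, was quantified by TMTpro 16plex LC-MS/MS with equalised channel sums.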

Chains of the proteins cited; added tags and fusions are not shown. Lines headed by an entry give the natural chain unless they say otherwise; changes in a name come on top.
UniProt O14656: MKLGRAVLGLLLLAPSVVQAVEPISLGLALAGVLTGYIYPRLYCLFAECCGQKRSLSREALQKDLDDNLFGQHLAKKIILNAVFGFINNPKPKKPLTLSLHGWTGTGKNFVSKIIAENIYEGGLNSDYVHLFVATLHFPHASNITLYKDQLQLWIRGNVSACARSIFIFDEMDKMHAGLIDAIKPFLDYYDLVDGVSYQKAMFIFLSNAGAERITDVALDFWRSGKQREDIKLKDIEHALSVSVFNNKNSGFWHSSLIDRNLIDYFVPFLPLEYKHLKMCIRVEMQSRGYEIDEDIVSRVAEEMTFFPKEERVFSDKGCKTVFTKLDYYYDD
UniProt Q96S44: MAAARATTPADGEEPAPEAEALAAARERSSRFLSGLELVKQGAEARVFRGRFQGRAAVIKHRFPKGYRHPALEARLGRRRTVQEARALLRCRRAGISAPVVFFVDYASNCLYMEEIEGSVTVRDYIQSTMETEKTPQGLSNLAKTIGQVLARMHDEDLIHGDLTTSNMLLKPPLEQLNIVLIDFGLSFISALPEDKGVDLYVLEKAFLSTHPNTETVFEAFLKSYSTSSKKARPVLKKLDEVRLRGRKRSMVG
UniProt Q9BRZ2: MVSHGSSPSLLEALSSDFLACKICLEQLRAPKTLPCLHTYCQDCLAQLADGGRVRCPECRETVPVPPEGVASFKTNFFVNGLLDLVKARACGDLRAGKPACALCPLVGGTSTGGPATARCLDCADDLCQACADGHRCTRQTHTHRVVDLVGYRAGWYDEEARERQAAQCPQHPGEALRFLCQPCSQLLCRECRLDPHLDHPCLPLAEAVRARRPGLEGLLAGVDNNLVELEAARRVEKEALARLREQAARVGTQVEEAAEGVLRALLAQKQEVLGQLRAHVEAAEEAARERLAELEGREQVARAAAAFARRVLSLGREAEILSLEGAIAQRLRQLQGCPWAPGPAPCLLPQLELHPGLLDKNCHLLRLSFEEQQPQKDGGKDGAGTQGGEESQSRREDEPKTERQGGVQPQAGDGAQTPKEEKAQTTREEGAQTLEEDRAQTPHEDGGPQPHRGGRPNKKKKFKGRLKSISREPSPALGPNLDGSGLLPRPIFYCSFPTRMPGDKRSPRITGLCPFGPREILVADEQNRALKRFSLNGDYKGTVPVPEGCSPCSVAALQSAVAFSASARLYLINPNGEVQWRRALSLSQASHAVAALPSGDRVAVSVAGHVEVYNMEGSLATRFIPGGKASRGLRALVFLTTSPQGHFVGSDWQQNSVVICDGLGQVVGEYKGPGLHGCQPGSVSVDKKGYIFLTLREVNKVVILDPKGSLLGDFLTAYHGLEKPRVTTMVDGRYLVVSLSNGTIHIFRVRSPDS
UniProt Q15642: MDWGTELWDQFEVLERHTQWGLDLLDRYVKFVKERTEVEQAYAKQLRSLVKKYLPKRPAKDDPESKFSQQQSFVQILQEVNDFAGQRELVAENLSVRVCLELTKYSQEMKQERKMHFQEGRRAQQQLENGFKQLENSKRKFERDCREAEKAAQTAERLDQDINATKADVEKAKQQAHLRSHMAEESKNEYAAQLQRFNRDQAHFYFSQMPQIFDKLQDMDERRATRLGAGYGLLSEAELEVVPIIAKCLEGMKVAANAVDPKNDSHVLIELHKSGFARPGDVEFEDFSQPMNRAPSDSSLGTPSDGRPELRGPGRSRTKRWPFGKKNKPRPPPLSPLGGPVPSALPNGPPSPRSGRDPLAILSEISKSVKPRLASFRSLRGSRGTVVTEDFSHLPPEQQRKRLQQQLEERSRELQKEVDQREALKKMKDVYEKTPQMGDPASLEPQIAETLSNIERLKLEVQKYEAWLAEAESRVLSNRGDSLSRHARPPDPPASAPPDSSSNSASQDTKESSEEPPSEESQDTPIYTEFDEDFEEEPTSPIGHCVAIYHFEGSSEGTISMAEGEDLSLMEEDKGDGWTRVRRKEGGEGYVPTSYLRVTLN
UniProt Q9Y5L0: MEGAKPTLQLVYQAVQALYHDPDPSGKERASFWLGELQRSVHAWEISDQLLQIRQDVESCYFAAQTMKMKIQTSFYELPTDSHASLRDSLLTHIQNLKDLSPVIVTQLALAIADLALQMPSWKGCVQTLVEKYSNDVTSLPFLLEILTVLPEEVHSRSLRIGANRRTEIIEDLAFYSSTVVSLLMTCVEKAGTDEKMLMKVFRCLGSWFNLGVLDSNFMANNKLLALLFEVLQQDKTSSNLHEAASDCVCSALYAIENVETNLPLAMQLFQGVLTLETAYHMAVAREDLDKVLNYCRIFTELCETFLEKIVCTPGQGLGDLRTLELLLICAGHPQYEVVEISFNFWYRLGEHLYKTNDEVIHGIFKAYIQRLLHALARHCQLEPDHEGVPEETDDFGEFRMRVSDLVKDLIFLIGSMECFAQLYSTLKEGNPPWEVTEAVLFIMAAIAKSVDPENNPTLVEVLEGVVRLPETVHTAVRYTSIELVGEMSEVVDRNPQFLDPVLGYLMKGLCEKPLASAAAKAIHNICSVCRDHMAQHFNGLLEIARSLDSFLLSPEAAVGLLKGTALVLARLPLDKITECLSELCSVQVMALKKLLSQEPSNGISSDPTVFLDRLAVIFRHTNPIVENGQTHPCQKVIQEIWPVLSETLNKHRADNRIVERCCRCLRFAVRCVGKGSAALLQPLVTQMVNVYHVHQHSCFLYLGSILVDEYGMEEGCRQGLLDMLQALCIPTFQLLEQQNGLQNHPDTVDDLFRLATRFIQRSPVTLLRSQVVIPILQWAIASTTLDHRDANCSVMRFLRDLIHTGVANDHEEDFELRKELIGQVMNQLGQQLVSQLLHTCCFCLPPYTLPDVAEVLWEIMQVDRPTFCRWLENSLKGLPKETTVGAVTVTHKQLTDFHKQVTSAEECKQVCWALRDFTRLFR
UniProt Q92973: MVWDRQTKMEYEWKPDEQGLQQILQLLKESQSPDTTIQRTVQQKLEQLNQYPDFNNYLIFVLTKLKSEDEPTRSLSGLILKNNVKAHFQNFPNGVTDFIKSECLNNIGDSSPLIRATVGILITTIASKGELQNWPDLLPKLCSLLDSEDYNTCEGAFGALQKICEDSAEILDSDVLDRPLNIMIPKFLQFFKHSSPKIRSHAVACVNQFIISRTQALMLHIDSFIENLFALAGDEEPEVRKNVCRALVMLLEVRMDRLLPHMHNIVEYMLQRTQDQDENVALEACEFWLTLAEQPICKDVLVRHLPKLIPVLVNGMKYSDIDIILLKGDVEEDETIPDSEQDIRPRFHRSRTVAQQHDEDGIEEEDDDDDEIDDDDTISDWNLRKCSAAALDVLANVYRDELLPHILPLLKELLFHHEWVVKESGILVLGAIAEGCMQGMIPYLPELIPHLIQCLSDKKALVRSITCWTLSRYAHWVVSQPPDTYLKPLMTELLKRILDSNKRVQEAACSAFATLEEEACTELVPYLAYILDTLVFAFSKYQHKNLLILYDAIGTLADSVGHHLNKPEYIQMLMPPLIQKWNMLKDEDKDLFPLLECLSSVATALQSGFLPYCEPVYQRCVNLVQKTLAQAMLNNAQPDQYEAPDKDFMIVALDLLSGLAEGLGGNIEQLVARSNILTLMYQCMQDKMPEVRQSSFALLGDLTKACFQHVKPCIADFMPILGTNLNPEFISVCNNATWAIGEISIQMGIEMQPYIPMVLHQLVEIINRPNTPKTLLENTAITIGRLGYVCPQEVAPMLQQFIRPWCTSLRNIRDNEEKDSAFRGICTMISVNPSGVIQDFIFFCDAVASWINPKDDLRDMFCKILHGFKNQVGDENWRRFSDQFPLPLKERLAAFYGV
UniProt O14773: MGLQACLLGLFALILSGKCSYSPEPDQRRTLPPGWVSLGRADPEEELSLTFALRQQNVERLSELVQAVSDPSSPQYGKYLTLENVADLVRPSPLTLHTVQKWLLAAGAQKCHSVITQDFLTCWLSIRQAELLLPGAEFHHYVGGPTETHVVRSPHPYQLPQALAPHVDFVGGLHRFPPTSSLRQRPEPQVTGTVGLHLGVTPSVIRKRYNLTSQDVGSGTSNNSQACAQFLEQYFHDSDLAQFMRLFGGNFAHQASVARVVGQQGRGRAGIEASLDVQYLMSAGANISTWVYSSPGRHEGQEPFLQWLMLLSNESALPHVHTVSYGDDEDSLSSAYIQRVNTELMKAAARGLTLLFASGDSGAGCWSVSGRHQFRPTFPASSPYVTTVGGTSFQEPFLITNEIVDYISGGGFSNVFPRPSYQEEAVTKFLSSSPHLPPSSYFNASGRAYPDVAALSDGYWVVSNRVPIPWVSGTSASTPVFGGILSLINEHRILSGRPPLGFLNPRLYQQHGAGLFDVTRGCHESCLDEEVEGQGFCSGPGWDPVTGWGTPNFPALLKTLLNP
UniProt Q8NCE0: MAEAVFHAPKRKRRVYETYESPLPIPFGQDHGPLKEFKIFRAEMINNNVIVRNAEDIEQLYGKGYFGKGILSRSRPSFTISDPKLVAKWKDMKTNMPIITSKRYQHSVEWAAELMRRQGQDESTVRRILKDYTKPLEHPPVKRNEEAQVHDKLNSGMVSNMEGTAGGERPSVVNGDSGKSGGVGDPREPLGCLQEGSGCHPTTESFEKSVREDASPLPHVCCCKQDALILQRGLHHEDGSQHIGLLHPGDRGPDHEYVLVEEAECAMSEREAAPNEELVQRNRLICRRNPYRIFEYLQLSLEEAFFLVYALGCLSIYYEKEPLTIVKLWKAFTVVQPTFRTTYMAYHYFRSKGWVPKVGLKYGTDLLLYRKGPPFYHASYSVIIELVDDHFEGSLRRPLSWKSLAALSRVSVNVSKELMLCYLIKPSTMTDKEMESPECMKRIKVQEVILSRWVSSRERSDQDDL
UniProt Q9NXH8: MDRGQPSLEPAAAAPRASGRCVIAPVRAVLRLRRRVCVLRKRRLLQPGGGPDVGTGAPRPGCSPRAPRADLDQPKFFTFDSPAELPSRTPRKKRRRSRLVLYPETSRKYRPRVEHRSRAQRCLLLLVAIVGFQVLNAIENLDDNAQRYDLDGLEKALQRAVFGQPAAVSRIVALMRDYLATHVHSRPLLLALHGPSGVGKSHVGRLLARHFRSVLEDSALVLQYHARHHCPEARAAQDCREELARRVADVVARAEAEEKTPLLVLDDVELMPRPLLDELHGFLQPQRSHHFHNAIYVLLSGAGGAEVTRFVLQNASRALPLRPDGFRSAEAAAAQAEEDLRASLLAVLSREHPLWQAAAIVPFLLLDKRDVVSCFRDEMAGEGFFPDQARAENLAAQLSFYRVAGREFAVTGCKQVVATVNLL
UniProt Q9UJA5: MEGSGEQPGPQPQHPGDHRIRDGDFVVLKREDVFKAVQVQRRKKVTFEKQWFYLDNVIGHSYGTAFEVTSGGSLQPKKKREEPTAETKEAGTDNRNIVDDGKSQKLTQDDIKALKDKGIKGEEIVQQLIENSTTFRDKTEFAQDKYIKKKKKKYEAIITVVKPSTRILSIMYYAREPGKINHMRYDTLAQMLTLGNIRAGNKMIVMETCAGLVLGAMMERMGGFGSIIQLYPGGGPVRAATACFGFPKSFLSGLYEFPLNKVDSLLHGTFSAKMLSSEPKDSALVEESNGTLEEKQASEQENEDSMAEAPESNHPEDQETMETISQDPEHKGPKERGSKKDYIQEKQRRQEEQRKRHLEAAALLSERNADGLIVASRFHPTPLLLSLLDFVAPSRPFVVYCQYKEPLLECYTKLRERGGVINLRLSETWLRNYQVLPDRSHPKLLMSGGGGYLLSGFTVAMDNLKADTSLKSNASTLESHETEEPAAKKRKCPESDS
UniProt Q5JTV8: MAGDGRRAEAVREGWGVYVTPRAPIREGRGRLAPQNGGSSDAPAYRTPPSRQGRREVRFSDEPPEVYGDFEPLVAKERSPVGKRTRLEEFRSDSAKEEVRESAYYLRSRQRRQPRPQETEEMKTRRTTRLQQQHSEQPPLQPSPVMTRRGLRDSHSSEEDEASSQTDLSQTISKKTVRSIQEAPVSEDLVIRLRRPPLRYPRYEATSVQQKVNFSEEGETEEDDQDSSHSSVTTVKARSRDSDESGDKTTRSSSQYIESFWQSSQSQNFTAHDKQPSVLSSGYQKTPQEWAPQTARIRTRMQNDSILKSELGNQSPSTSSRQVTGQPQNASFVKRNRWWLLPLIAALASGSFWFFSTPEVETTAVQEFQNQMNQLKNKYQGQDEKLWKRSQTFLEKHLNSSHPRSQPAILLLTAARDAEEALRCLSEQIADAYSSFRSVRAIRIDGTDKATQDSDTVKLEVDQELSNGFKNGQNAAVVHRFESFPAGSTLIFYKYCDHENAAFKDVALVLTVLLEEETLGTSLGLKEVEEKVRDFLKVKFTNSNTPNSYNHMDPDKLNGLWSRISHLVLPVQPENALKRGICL
UniProt Q9BQ61: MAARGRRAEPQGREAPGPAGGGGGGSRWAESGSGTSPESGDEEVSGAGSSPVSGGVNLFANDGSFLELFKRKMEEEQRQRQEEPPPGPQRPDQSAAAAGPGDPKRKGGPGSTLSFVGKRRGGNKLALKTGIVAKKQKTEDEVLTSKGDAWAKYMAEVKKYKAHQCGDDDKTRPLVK

volasertib = compound: CC[C@@H]1C(=O)N(C)c2cnc(Nc3ccc(C(=O)N[C@H]4CC[C@H](N5CCN(CC6CC6)CC5)CC4)cc3OC)nc2N1C(C)C [volasertib]
Method in brief: as §1

[2] = compound: CC[C@H](C)N1C=C(C2=C(C=C(C=C21)C3=CN=C(C=C3)N4CCNCC4)C(=O)NCC5=C(C=C(NC5=O)C)C)C
Method in brief: as §1

epoxomicin = compound: CC[C@H](C)[C@@H](C(=O)N[C@@H]([C@@H](C)O)C(=O)N[C@@H](CC(C)C)C(=O)[C@]1(CO1)C)NC(=O)[C@H]([C@@H](C)CC)N(C)C(=O)C [epoxomicin]
Method in brief: as §1

[3] = compound: CCn1c(C(=O)N(C2CC2)C2CC2)cc2c3c(ncn3C)c(Nc3cc(C)n(C)n3)nc21
Method in brief: as §1

[4] = compound: CCn1cc(-c2ccnc3[nH]c(-c4cccc(CN(C)C)c4)cc23)c(-c2ccc(NC(=O)N(C)C)cc2)n1
Method in brief: as §1

[5] = compound: CN(C)CC(=O)Nc1ccc2[nH]c(=O)c3ccccc3c2c1
Method in brief: as §1

rosiglitazone = compound: CN(CCOC1=CC=C(C=C1)C[C@H]2C(=O)NC(=O)S2)C3=CC=CC=N3 (racemic) [rosiglitazone]
Method in brief: as §1

[6] = compound: CN1C2=C(C3=C1C(=O)N(N=C3)CC4=CC(=CC=C4)N)SC(=C2)S(=O)C
Method in brief: as §1

[7] = compound: CN1CCC(CNc2ccc3ncc(-c4cccc(OC(F)(F)F)c4)n3n2)CC1
Method in brief: as §1

Target	log2 fold change [1]	log2 fold change (volasertib)	log2 fold change [2]	log2 fold change (epoxomicin)	log2 fold change [3]	log2 fold change [4]	log2 fold change [5]	log2 fold change (rosiglitazone)	log2 fold change [6]	log2 fold change [7]
TSC22D2 (UniProt O75157)	inactive: 0.04	inactive: 0.003	inactive: -0.115	inactive: 0.026	inactive: 0.05	inactive: -0.042	inactive: -0.027	inactive: 0.025	inactive: 0.035	inactive: 0.014
TOR1A (UniProt O14656)	inactive: 0.067	inactive: 0.008	inactive: -0.03	inactive: 0.01	inactive: 0.015	inactive: 0.025	inactive: -0.014	inactive: 0.007	inactive: -0.053	inactive: 0.039
TP53RK (UniProt Q96S44)	inactive: 0.01	inactive: 0.056	inactive: 0.003	inactive: 0.004	inactive: 0.045	inactive: 0.025	inactive: -0.023	inactive: 0.027	inactive: -0.035	inactive: -0.002
TRIM56 (UniProt Q9BRZ2)	inactive: 0.2	inactive: 0.146	inactive: -0.046	inactive: -0.113	inactive: 0.034	inactive: 0.07	–	inactive: 0.021	inactive: 0.243	inactive: 0.054
TOMM70 (UniProt O94826)	inactive: -0.057	inactive: -0.102	inactive: 0.057	inactive: 0.023	inactive: -0.018	inactive: -0.029	inactive: 0.004	inactive: 0.018	inactive: -0.027	inactive: -0.017
TPP2 (UniProt Q5VZU9)	inactive: 0.154	inactive: 0.31	inactive: 0.104	inactive: 0.041	inactive: -0.144	–	inactive: -0.012	inactive: -0.082	inactive: 0.163	–
TPM1 (UniProt H7BYY1)	inactive: 0.013	inactive: 0.067	inactive: -0.055	inactive: 0.041	inactive: 0.028	inactive: 0.036	inactive: 0.004	inactive: -0.03	inactive: 0.017	inactive: 0.042
TRIP10 (UniProt Q15642)	inactive: -0.024	inactive: -0.11	inactive: 0.047	inactive: 0.034	–	inactive: -0.051	inactive: 0.04	–	inactive: -0.036	inactive: -0.056
TNPO3 (UniProt Q9Y5L0)	inactive: -0.182	active: -0.406	inactive: 0.039	inactive: 0.041	–	inactive: -0.075	inactive: 0.041	–	inactive: -0.036	inactive: -0.128
TNPO1 (UniProt Q92973)	inactive: -0.182	active: -0.379	inactive: 0.046	inactive: -0.016	–	inactive: -0.025	inactive: 0.018	–	inactive: -0.019	inactive: -0.055
TPP1 (UniProt O14773)	active: -0.647	active: -1.09	inactive: -0.002	inactive: 0.019	–	inactive: -0.117	inactive: 0.007	–	inactive: -0.001	active: -0.569
TSEN2 (UniProt Q8NCE0)	inactive: -0.019	inactive: -0.146	inactive: 0.053	inactive: 0.078	–	inactive: -0.082	inactive: 0.086	–	inactive: -0.04	inactive: 0.034
TSEN34 (UniProt Q9BSV6)	inactive: -0.005	inactive: -0.162	inactive: 0.094	inactive: 0.17	inactive: -0.055	–	inactive: 0.204	inactive: 0.01	inactive: -0.144	–
TOM1 isoform 2 (UniProt O60784)	inactive: -0.056	inactive: -0.196	inactive: 0.037	inactive: -0.035	–	inactive: -0.082	inactive: 0.026	–	inactive: 0.006	inactive: -0.274
TOR4A (UniProt Q9NXH8)	inactive: -0.001	inactive: 0.011	inactive: 0.018	inactive: -0.054	inactive: 0.012	inactive: 0.128	inactive: 0.003	inactive: -0.012	inactive: 0.101	inactive: -0.002
TNNC2 (UniProt P02585)	inactive: 0.042	inactive: 0.07	inactive: -0.031	inactive: -0.037	–	inactive: 0.04	inactive: -0.006	–	inactive: -0.053	inactive: -0.015
TRAPPC11 (UniProt Q7Z392)	inactive: -0.045	active: -0.275	inactive: 0.015	inactive: 0.016	–	inactive: -0.032	inactive: 0.032	–	inactive: 0.004	inactive: -0.127
TPM1 isoform 4 (UniProt P09493)	inactive: 0.011	inactive: 0.056	inactive: -0.003	inactive: 0.01	inactive: 0.021	inactive: -0.004	inactive: -0.01	inactive: 0.001	inactive: -0.046	inactive: 0.067
TRMT10A (UniProt Q8TBZ6)	inactive: 0.016	inactive: -0.013	inactive: 0.033	inactive: 0.003	–	inactive: -0.037	inactive: 0.047	–	inactive: -0.135	inactive: -0.075
TRMT6 (UniProt Q9UJA5)	inactive: 0.13	inactive: 0.225	inactive: -0.014	inactive: -0.107	inactive: 0.059	inactive: 0.098	inactive: -0.085	inactive: -0.106	inactive: 0.202	inactive: -0.053
TRMT10C (UniProt Q7L0Y3)	inactive: -0.161	active: -0.416	inactive: 0.07	inactive: 0.046	–	inactive: -0.057	inactive: 0.018	–	inactive: 0.008	inactive: 0.003
TOMM20 (UniProt Q15388)	inactive: -0.135	inactive: -0.075	inactive: -0.068	inactive: -0.089	–	inactive: -0.017	inactive: -0.005	–	inactive: -0.033	active: -0.271
TOR1AIP1 isoform 3 (UniProt Q5JTV8)	inactive: -0.01	inactive: 0.011	inactive: -0.008	inactive: 0.004	inactive: 0	inactive: 0.007	inactive: -0.003	inactive: 0.017	inactive: -0.059	inactive: 0.07
TRAPPC12 (UniProt Q8WVT3)	inactive: -0.03	inactive: -0.162	inactive: 0.108	inactive: 0.054	inactive: -0.062	inactive: 0.002	inactive: 0.006	inactive: 0.018	inactive: 0.023	inactive: -0.008
TRUB1 (UniProt Q8WWH5)	inactive: -0.034	inactive: -0.147	inactive: 0.066	inactive: 0.014	inactive: -0.016	inactive: -0.022	inactive: 0.074	inactive: 0.011	inactive: -0.016	inactive: -0.075
TRIR (UniProt Q9BQ61)	inactive: 0.027	inactive: 0.092	inactive: -0.027	inactive: -0.001	inactive: -0.018	inactive: 0.03	inactive: -0.056	inactive: -0.039	inactive: -0.031	inactive: 0.052
TPR (UniProt P12270)	inactive: 0.095	inactive: -0.034	inactive: -0.018	inactive: 0	–	inactive: 0.067	inactive: -0.03	–	inactive: -0.005	active: 0.297

Full records, quoted from the list. Order of values: log2 fold change [1] | log2 fold change (volasertib) | log2 fold change [2] | log2 fold change (epoxomicin) | log2 fold change [3] | log2 fold change [4] | log2 fold change [5] | log2 fold change (rosiglitazone) | log2 fold change [6] | log2 fold change [7]
TPM1 isoform 4 (UniProt P09493) is listed as inactive: 0.011 | inactive: 0.056 | inactive: -0.003 | inactive: 0.01 | inactive: 0.021 | inactive: -0.004 | inactive: -0.01 | inactive: 0.001 | inactive: -0.046 | inactive: 0.067
TNNC2 (UniProt P02585) is listed as inactive: 0.042 | inactive: 0.07 | inactive: -0.031 | inactive: -0.037 | – | inactive: 0.04 | inactive: -0.006 | – | inactive: -0.053 | inactive: -0.015

Source: the supplement of paper PMC10849652
